Experimental data reported in article PMC7819943, “Rice protein-binding microarrays: a tool to detect cis-acting elements near promoter regions in rice”.
Some of the results follow.

Chains of the proteins cited; added tags and fusions are not shown.
UniProt Q0JBA9, entry or part of it: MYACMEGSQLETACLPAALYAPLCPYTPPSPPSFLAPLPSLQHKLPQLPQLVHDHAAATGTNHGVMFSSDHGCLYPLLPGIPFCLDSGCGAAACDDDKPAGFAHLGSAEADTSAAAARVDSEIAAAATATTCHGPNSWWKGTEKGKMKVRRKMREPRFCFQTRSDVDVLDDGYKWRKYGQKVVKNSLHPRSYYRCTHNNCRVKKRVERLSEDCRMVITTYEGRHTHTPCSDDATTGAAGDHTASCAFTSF

target: OsWRKY34 (Oryza sativa, UniProt Q0JBA9 1-250); experiment: protein-binding microarray (RPBM); PBS, 2% BSA, 51.3 ng/ul salmon testes DNA, 50 uM zinc acetate, 200 nM TF, 25 C, 1 h; high values mean tight binding; settings: protein: recombinant; tags: N-terminal polyhistidine and DsRed monomer fusion (pET32a); label: CyDye5-dUTP incorporated in the synthesized complementary strand; 3' TTTTT single-stranded linker to array surface; dsDNA, one strand shown
Method in brief: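 Binding signal is reported as fluorescence intensity per feature (arbitrary units) from an Axon 4000B scanner. Incubation used 200 nM of each Ni–NTA-purified, N-terminally polyhistidine- and DsRed-fused transcription factor from E. coli BL21-CodonPlus on a double-stranded custom Agilent array for 1 h at 25 °C, with 50 µM zinc acetate in the buffer, followed by washing.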

Sequence | binding signal
TAGTGGTGGTGGTGGTGGCTATGGAGGAGGAAGGTATGAGCGGAGTCACCTAGTGCAG | 12100 fluorescence intensity (a.u.)
GCCGGCAAAGTCGCCGTTCCACGTTCCCGCCGCCGGCGCCCGGAGTCACCTAGTGCAG | 8520 fluorescence intensity (a.u.)
GCACTACACTCTCCTCCACTCGCACCCACACATCGCCTTCCGGAGTCACCTAGTGCAG | 9050 fluorescence intensity (a.u.)
TTCTCTTCTAATGTTACTTATTTTTTAATTCCGAATTTTACGGAGTCACCTAGTGCAG | 8040 fluorescence intensity (a.u.)
ACAAACTTCTAACTTTTTCGTCACATCATTCCAATTTCAACGGAGTCACCTAGTGCAG | 10500 fluorescence intensity (a.u.)
ACAAATGGTCAAACGTTGGTCGAAAAGTCAACGGCGTCATCGGAGTCACCTAGTGCAG | 13700 fluorescence intensity (a.u.)
CAGTCGTGGTTCAATCAAACGGTTATTCATATGTTTTTCACGGAGTCACCTAGTGCAG | 10800 fluorescence intensity (a.u.)
CTTGCTCCTACACTCGCTACTGCTGTCCTTCCCACCATTGCGGAGTCACCTAGTGCAG | 8030 fluorescence intensity (a.u.)
AGGCCCGGTCAAAGTTTGACTATTTTGCCCACAACTCAGACGGAGTCACCTAGTGCAG | 12600 fluorescence intensity (a.u.)
GCATTACGATGGTTCTTTTCTACCTATAGACAACTTTTTTCGGAGTCACCTAGTGCAG | 9360 fluorescence intensity (a.u.)
CCGCTTCTTTTCTCGCTTCTGCTCCCCGCCGCCACCGCCTCGGAGTCACCTAGTGCAG | 11700 fluorescence intensity (a.u.)
TACTGTTGTATGCTGTTCCCTTGCCGTCTCTGAACTTTCCCGGAGTCACCTAGTGCAG | 15400 fluorescence intensity (a.u.)
TCGTTTGATGCGATTTCGGCGGCGATCACCACCACCACCACGGAGTCACCTAGTGCAG | 8160 fluorescence intensity (a.u.)
TATCTTTGAGGAGGTTTAGTACTTCTTTTGGGCTTTTCTTCGGAGTCACCTAGTGCAG | 10600 fluorescence intensity (a.u.)
CACCACAGCAAAGGAACACACTTTTTTTCTCTTCTTCTTTCGGAGTCACCTAGTGCAG | 9720 fluorescence intensity (a.u.)
ACTTTCCTGCTAAGTTGTTGTACTAGAACGCTTATTTTTCCGGAGTCACCTAGTGCAG | 10000 fluorescence intensity (a.u.)
ATTTTGGGCCTATTCACTTTGATGTCATTTTTAACCATACCGGAGTCACCTAGTGCAG | 9660 fluorescence intensity (a.u.)
TCGCCCGCTATCTCCCACAACTCCACCTCTCCACATCTTCCGGAGTCACCTAGTGCAG | 8820 fluorescence intensity (a.u.)
AACCCTACAGCGCCTCCACCACCACTCCTTGCCTTTTTTGCGGAGTCACCTAGTGCAG | 9890 fluorescence intensity (a.u.)
ATGGGAAAAATGTACTCTTGCATGTGTGCCAAATTTGGTTCGGAGTCACCTAGTGCAG | 8970 fluorescence intensity (a.u.)
CGCCGACACATAATACGTTGGCAGTGCTATATACATATTTCGGAGTCACCTAGTGCAG | 8770 fluorescence intensity (a.u.)

Sequence | binding signal
TATATATATATATGTGTGTGTGTTCTTAGCGACTTAAAAACGGAGTCACCTAGTGCAG | 9070 fluorescence intensity (a.u.)
TCACCCGAAACCCTAGCCCCATTCGCCGCCGGGGTCGCGGCGGAGTCACCTAGTGCAG | 8170 fluorescence intensity (a.u.)
ACTAGTGGATTGATTCCCGGTCTCTTATTGTCCCTATCATCGGAGTCACCTAGTGCAG | 10000 fluorescence intensity (a.u.)
ATACTCTTGGTTTATCTTTGATTTTGTATATCTTTTTATTCGGAGTCACCTAGTGCAG | 9720 fluorescence intensity (a.u.)
GACGCCCCTGTGCAGCGCCGCTCTTGTTCGAATCCGGCCGCGGAGTCACCTAGTGCAG | 8780 fluorescence intensity (a.u.)
AACAGGGCCATGTCTAGATTTGTAGTTGTCACATCCGGTTCGGAGTCACCTAGTGCAG | 8090 fluorescence intensity (a.u.)
CCACCCGTACGTCGCAAGCCCGTTCCATCTCGCACACTATCGGAGTCACCTAGTGCAG | 9640 fluorescence intensity (a.u.)
TGCTTTTATGTCCCCAACGCCCCAACTACTATCGGTTGCACGGAGTCACCTAGTGCAG | 8030 fluorescence intensity (a.u.)
GGTAGGTAGTCCATTGCCCCGTCTGGTATACCTACAAGTTCGGAGTCACCTAGTGCAG | 8160 fluorescence intensity (a.u.)
TCACTCCAACGATCACACCATCTATCCTCTCTACATTGAGCGGAGTCACCTAGTGCAG | 8230 fluorescence intensity (a.u.)
GTACTTGTGGCCGTGCTGTTTGACCCTTGCACAGTTGCAACGGAGTCACCTAGTGCAG | 11400 fluorescence intensity (a.u.)
CGATACTTTCATGGGTGGGTCCTATGTTGCACGGTTGGTTCGGAGTCACCTAGTGCAG | 22900 fluorescence intensity (a.u.)
GCTGTAGAAATTTCTCCTTCTTTGTTAAATGTATGTCTTTCGGAGTCACCTAGTGCAG | 9540 fluorescence intensity (a.u.)
CTTTGCTACGTGTATTTTTTGTGGCCATAGCTTCAATGTGCGGAGTCACCTAGTGCAG | 8600 fluorescence intensity (a.u.)
CGCCGCCATCTCGCCGCCGCCGCCACCTCACCCAACCAATCGGAGTCACCTAGTGCAG | 9680 fluorescence intensity (a.u.)
TATTCTTTGCCTGAAAGCAATATTGTCAGTGGCTTGCTTACGGAGTCACCTAGTGCAG | 8110 fluorescence intensity (a.u.)
ACCTTTCGCGTTCACCTCAGCTCAGCTCGTCTCTCTGACTCGGAGTCACCTAGTGCAG | 14300 fluorescence intensity (a.u.)
TGTACAAATCCTCCGTTTCTTATTTATGATTGAATTTCATCGGAGTCACCTAGTGCAG | 8080 fluorescence intensity (a.u.)
AAACTTTCCTACGCACATAAACTTCCAACTTTTCCGTCACCGGAGTCACCTAGTGCAG | 9800 fluorescence intensity (a.u.)
TGCATGTTCCATTTTTATAACAATTTTCAAATACCTTACACGGAGTCACCTAGTGCAG | 8140 fluorescence intensity (a.u.)
TATGGTTGTTTGGTTTGTTTAAAGGGAGTACATATACATCCGGAGTCACCTAGTGCAG | 8890 fluorescence intensity (a.u.)

A run of entries of the results above:
Sequence | binding signal
TGTACAAATCCTCCGTTTCTTATTTATGATTGAATTTCATCGGAGTCACCTAGTGCAG | 8080 fluorescence intensity (a.u.)
AAACTTTCCTACGCACATAAACTTCCAACTTTTCCGTCACCGGAGTCACCTAGTGCAG | 9800 fluorescence intensity (a.u.)
TGCATGTTCCATTTTTATAACAATTTTCAAATACCTTACACGGAGTCACCTAGTGCAG | 8140 fluorescence intensity (a.u.)
